Results taken from paper PMC12350170, “Structural basis for the synergistic assembly of the snRNA export complex” (Nature Structural & Molecular Biology, 2025).
Results are given in words; binding and its absence hold for the method and conditions named. Binding seen in cells or lysates may run through a third protein. These calls come from enrichment with a bait or labelling near it, and not all partners need be listed.

By UniProt entry, the sequences of proteins in these tests, tags left out. Where a name states a change or a piece, a line headed by the entry shows the natural chain unless it says otherwise.
UniProt Q9JJT9: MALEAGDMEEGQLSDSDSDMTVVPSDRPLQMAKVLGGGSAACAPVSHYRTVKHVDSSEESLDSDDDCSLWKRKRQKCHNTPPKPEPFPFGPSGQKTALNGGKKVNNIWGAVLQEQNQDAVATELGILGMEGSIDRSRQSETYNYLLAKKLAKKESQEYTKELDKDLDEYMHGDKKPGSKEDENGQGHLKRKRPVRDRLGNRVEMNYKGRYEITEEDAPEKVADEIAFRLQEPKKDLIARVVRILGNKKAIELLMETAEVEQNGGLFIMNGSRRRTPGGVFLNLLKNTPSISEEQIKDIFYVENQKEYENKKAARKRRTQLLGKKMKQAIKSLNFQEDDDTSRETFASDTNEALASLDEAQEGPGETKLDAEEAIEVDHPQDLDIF

Columns and labels:
Experiment in all cases: proximity labelling; MYC-mTurbo-PHAX variants in HA-dTAG-PHAX mES cells; dTAG^V-1 4 h to deplete endogenous PHAX, 50 µM biotin 4 h; streptavidin beads, western blot of CBP20, CBP80, Ran, CRM1, ARS2
[1] = molecular target: MYC-mTurbo-PHAX R49E (mouse) (mouse) (UniProt Q9JJT9)
[2] = molecular target: MYC-mTurbo-PHAX R137A (mouse) (mouse) (UniProt Q9JJT9)
[3] = molecular target: MYC-mTurbo-PHAX Y144E (mouse) (mouse) (UniProt Q9JJT9)
[4] = molecular target: MYC-mTurbo-PHAX ST2A (mouse; S56A-S57A-S60A-S63A) (mouse) (UniProt Q9JJT9)
[5] = molecular target: MYC-mTurbo-PHAX WT (mouse) (mouse) (UniProt Q9JJT9)

Measured: binding

B1: Endogenous mouse ARS2 (protein, UniProt Q99MR6 1-875)
chain: MGDSDDEYDRRRRDKFRRERSDYDRSRERDERRRGDDWNDREWDRGRERRSRGEYRDYDRNRRERFSPPRHELSPPQKRMRRDWDEHSSDPYHSGYDMPYAGGGGGPTYGPPQPWGHPDVHIMQHHVLPIQARLGSIAEIDLGVPPPIMKSFKEFLLSLDDSVDETEAVKRYNDYKLDFRRQQMQDFFLAHKDEEWFRSKYHPDEVGKRRQEARGALQNRLKVFLSLMESGWFDNLLLDIDKADAIVKMLDAAVIKMEGGTENDLRILEQEEEEEQAGKTGEASKKEEARAGPALGEGERKANDKDEKKEDGKQAENDSSNDDKTKKSEGDGDKEEKKEEAEKEAKKSKKRNRKQSGDDSFDEGSVSESESESEGGQAEEEKEEAEEALKEKEKPKEEEKEKPKDAAGLECKPRPLHKTCSLFMRNIAPNISRAEIISLCKRYPGFMRVALSEPQPERRFFRRGWVTFDRSVNIKEICWNLQNIRLRECELSPGVNRDLTRRVRNINGITQHKQIVRNDIKLAAKLIHTLDDRTQLWASEPGTPPVPTSLPSQNPILKNITDYLIEEVSAEEEELLGSSGGPPPEEPPKEGNPAEINVERDEKLIKVLDKLLLYLRIVHSLDYYNTCEYPNEDEMPNRCGIIHVRGPMPPNRISHGEVLEWQKTFEEKLTPLLSVRESLSEEEAQKMGRKDPEQEVEKFVTSNTQELGKDKWLCPLSGKKFKGPEFVRKHIFNKHAEKIEEVKKEVAFFNNFLTDAKRPALPEIKPAQPPGPAQILPPGLTPGLPYPHQTPQGLMPYGQPRPPILGYGAGAVRPAVPTGGPPYPHAPYGAGRGNYDAFRGQGGYPGKPRNRMVRGDPRAIVEYRDLDAPDDVDFF
binds: all assays above
